Experimental data as given in US12269797B2, “Bifunctional linker for bisconjugation, method of synthesis, and method of use” (priority 2020, dated 2025).

How the values were obtained:
[1] = tested on: RFP; experiment: Mass peptide fingerprint site analysis of residues modified by the linker; conditions: 1:1 Ib:RFP reaction, trypsin digestion, MS/MS
[2] = RFP retention on copper-painted substrate after washing (fluorescent microscopy, ImageJ particle count); conditions: RFP retained on copper-painted stainless steel after washing

| Molecule | arginine modifications [1] | lysines unambiguously modified (of the 21 lysines of RFP) ([1]; Mascot site analysis probability >89%) | Retained (%) [2] |
| --- | --- | --- | --- |
| C#CCOC(=O)c1ccc(C=O)c(C=O)c1 [Ib, Prop-2-yn-1-yl 3,4-diformylbenzoate] | No arginine modifications were detected | 12 | – |
| RFP: Red fluorescent protein expressed from the pBAD-DsRED plasmid in E. coli BL21(DE3), no linker, control (protein, UniProt Q9U6Y8 1-225, looked up) Red fluorescent protein …: MRSSKNVIKEFMRFKVRMEGTVNGHEFEIEGEGEGRPYEGHNTVKLKVTKGGPLPFAWDILSPQFQYGSKVYVKHPADIPDYKKLSFPEGFKWERVMNFEDGGVVTVTQDSSLQDGCFIYKVKFIGVNFPSDGPVMQKKTMGWEASTERLYPRDGVLKGEIHKALKLKDGGHYLVEFKSIYMAKKPVQLPGYYYVDSKLDITSHNEDYTIVEQYERTEGRHHLFL | – | – | 2% |
